Assay results taken from PMC8445998 (Nature Communications, 2021).
These are yes or no findings as the source states them, for the method shown. In cells and extracts the contact can be indirect. Some results given as binding are weak or reduced against the parent protein; the word gives no strength. Tags and fused reporters may be left off the sequences shown.

Sequences of proteins named here, by UniProt entry; tags and fusion partners are left off. A change or cut given only in a name is not applied to a line headed by its entry.
UniProt Q6PL11: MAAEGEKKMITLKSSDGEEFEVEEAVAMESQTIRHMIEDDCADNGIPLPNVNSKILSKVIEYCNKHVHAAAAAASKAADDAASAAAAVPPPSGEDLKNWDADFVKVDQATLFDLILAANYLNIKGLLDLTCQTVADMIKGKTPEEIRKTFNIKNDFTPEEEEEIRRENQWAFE

Target: T1, OsCOI1b-FLAG (rice) (UniProt Q60EH4)
T1 sequence: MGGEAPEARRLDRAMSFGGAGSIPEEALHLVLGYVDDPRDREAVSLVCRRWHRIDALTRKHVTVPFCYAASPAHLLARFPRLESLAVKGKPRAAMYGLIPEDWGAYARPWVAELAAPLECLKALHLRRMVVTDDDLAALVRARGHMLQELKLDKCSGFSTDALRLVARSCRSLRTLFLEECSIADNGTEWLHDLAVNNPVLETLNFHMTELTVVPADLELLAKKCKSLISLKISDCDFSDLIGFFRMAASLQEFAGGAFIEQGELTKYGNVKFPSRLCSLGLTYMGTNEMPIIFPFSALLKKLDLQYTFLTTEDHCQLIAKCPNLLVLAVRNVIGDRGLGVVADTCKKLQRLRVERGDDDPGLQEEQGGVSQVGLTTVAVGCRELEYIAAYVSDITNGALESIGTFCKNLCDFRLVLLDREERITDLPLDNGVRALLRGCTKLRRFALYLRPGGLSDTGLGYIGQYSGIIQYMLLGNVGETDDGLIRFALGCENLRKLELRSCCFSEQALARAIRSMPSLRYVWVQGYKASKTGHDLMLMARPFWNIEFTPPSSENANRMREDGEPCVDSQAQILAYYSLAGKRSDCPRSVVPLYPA
Assay: co-IP

Substance | binding
OSK1^S53D-HA (from UniProt Q6PL11 1-173) | binds
OSK1-HA (from UniProt Q6PL11 1-173) | binds
